Reference: publication PMC9090252
No constants are given. Whether binding was seen depends on the method and setting. In cells and extracts the contact can be indirect. Some results given as binding are weak or reduced against the parent protein; the word gives no strength. For some assays here: Where a sequence is shown, tags or fusion partners need not be part of it. Blank lines part the entries; values can stand above or below the molecule they belong to.

Chains of the proteins cited; added tags and fusions are not shown. Residues count along the entry.
UniProt O14786, residues 22-923: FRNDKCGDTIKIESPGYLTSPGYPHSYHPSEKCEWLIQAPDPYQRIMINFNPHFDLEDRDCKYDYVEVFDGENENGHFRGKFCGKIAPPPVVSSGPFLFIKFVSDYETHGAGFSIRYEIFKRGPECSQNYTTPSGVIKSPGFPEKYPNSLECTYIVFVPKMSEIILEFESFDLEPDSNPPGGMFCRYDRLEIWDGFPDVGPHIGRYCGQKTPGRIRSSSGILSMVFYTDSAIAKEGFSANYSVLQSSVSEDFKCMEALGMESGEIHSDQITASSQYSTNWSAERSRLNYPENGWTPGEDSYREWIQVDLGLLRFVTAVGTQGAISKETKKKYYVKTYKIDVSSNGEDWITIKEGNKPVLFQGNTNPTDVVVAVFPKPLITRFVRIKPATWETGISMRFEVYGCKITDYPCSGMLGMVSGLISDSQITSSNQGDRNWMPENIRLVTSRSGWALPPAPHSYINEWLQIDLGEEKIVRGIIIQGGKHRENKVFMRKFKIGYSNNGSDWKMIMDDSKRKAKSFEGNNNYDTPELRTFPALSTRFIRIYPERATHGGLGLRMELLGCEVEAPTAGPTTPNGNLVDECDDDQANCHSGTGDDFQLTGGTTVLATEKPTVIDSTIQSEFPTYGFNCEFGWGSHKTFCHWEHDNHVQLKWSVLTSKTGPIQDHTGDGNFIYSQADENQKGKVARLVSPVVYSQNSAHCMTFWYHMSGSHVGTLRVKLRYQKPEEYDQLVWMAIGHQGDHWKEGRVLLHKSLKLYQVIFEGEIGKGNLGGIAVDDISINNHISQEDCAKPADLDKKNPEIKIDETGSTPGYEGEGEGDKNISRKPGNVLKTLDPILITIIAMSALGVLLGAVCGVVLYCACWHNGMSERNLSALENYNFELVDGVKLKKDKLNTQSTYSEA
UniProt P37023, residues 22-503: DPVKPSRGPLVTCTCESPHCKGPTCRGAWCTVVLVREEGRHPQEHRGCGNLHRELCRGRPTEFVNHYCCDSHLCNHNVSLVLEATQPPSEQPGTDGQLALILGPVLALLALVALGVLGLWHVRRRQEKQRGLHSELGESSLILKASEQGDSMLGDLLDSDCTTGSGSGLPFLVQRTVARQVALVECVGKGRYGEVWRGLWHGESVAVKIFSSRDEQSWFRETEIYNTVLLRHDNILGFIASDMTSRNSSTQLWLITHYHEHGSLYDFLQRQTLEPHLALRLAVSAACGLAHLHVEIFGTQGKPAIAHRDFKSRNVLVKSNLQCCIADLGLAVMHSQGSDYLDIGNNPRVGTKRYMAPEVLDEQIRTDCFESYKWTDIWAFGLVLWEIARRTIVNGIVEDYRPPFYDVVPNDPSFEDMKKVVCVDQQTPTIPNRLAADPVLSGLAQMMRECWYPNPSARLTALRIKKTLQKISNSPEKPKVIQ

Legend:
[1] = target: Neuropilin-1 (NRP-1), overexpressed in HEK293T cells (UniProt O14786); assay: co-IP; HEK293T cotransfected with NRP-1 and FLAG-ENG or FLAG-ALK1; lysate (500 ug) in IP buffer (50 mM Tris-buffered saline pH 8.0, 0.05% sodium deoxycholate, 0.1% NP-40); IP with 5 ug anti-NRP-1 antibody at 4 C overnight, anti-rabbit IgG magnetic beads; blot anti-FLAG
[2] = target: FLAG-tagged activin-A receptor like type 1 (ALK1), overexpressed in HEK293T cells (UniProt P37023); assay: co-IP; HEK293T overexpressing NRP-1 and FLAG-ALK1 or FLAG-ENG; lysate immunoprecipitated with FLAG antibody; blot anti-NRP-1
[3] = target: T1, FLAG-tagged endoglin (ENG), overexpressed in HEK293T cells (UniProt P17813); assay: as above
T1 sequence: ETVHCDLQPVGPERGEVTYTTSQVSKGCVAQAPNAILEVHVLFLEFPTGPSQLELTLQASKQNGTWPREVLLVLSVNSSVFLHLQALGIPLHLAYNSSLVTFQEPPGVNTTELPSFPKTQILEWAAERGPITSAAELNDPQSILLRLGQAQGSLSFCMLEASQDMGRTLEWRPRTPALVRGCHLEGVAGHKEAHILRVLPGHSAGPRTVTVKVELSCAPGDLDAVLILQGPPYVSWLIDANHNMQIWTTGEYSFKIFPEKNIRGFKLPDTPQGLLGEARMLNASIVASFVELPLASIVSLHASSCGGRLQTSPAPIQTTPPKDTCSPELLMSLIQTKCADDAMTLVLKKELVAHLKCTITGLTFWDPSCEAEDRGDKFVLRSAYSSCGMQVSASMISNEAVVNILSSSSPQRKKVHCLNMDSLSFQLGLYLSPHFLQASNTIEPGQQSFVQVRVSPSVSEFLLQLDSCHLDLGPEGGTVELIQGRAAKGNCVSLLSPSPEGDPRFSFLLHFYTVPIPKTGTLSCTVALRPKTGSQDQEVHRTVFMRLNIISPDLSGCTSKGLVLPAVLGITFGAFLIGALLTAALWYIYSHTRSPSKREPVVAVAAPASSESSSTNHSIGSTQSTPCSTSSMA

[4] = target: Neuropilin-1 (NRP-1), endogenous in mouse aortic smooth muscle cells (mouse (endogenous in aortic SMCs)) (UniProt P97333); assay: co-IP; endogenous proteins in aortic SMCs from a C57BL/6J mouse, serum-starved overnight, unstimulated or stimulated with 10 ng/mL TGF-beta1 for 15 and 30 minutes; IP anti-NRP-1; blots for ALK1 and ENG

Molecule: Neuropilin-1 (NRP-1), overexpressed in HEK293T cells (from UniProt O14786 22-923) (receptor)
binding [2]: binds
binding [3]: binds

B1: FLAG-tagged endoglin (ENG), overexpressed in HEK293T cells (receptor, UniProt P17813 26-658)
chain: T1 sequence
binding [1]: binds

Second part, the molecule after the results:

binding [1]: binds
Molecule: FLAG-tagged activin-A receptor like type 1 (ALK1), overexpressed in HEK293T cells (from UniProt P37023 22-503)

binding [4]: binds
B2: Activin-A receptor like type 1 (ALK1), endogenous in mouse aortic smooth muscle cells (receptor, UniProt Q61288 23-502)
chain: DLAKPSKLVNCTCESPHCKRPFCQGSWCTVVLVREQGRHPQVYRGCGSLNQELCLGRPTEFLNHHCCYRSFCNHNVSLMLEATQTPSEEPEVDAHLPLILGPVLALPVLVALGALGLWRVRRRQEKQRDLHSDLGESSLILKASEQADSMLGDFLDSDCTTGSGSGLPFLVQRTVARQVALVECVGKGRYGEVWRGSWHGESVAVKIFSSRDEQSWFRETEIYNTVLLRHDNILGFIASDMTSRNSSTQLWLITHYHEHGSLYDFLQRQTLEPQLALRLAVSAACGLAHLHVEIFGTQGKPAIAHRDLKSRNVLVKSNLQCCIADLGLAVMHSQSSDYLDIGNNPRVGTKRYMAPEVLDEHIRTDCFESYKWTDIWAFGLVLWEIARRTIINGIVEDYRPPFYDMVPNDPSFEDMKKVVCVDQQTPTIPNRLAADPVLSGLAQMMRECWYPNPSARLTALRIKKTLQKLSHNPEKPKVIH
